Experimental data as given in publication PMC8058707.
Results are given in words; binding and its absence hold for the method and conditions named. In cells and extracts the contact can be indirect. Some entries that bind do so weakly or less than the wild type.

Protein sequences, listed by entry. Tags and fused reporters are not part of them.
UniProt P46937: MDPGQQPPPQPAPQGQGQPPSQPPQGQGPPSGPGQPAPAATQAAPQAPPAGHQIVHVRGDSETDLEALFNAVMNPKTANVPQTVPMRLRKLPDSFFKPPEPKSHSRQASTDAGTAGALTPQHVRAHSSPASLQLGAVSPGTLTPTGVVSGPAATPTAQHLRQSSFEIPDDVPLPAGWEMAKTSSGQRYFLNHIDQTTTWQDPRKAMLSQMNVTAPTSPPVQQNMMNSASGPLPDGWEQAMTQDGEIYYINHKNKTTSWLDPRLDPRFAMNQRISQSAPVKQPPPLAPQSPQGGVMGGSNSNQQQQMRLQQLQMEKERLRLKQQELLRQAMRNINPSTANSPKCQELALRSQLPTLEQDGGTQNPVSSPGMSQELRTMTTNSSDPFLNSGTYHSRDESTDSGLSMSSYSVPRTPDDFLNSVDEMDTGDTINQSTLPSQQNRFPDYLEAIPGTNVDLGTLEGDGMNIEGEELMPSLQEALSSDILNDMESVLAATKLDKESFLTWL
UniProt Q9Y297: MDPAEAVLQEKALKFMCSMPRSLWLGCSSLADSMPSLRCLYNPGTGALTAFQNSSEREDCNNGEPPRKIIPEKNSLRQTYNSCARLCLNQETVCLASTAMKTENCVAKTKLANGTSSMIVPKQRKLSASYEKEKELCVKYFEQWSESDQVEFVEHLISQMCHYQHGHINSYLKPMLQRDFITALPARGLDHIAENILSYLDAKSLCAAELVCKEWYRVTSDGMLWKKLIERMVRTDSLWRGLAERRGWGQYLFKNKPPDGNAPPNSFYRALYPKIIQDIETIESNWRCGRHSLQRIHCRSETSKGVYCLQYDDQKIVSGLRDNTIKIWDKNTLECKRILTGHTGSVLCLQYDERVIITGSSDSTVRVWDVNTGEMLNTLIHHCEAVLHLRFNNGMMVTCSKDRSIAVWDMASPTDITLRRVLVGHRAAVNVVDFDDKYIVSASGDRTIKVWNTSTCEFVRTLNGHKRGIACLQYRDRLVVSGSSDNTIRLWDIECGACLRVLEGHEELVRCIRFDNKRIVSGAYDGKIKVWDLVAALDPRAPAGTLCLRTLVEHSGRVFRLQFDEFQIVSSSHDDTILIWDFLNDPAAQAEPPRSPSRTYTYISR

Biological target: Yes-associated protein (human (endogenous in H1975)) (UniProt P46937)
Test: co-IP; whole cell lysates incubated with antibody-conjugated protein A/G magnetic beads in Western/IP lysis buffer at 4 °C overnight, washed five times, then IB; cells treated with erastin, Sorafenib or RSL3

binding: binds
Substance: beta-transducin repeat containing E3 ubiquitin protein ligase (from UniProt Q9Y297 1-605)
